Assay results: publication PMC4741438, “Targeting the SIN3A-PF1 interaction inhibits epithelial to mesenchymal transition and maintenance of a stem cell phenotype in triple negative breast cancer” (Oncotarget, 2015)
Results are given in words; binding and its absence hold for the method and conditions named. Binding seen in cells or lysates may run through a third protein. Some binding calls cover weakened binding; strength is not graded here.

Biological target: T1, SIN3A (human (endogenous in MDA-MB-231)) (UniProt Q96ST3)
T1 sequence: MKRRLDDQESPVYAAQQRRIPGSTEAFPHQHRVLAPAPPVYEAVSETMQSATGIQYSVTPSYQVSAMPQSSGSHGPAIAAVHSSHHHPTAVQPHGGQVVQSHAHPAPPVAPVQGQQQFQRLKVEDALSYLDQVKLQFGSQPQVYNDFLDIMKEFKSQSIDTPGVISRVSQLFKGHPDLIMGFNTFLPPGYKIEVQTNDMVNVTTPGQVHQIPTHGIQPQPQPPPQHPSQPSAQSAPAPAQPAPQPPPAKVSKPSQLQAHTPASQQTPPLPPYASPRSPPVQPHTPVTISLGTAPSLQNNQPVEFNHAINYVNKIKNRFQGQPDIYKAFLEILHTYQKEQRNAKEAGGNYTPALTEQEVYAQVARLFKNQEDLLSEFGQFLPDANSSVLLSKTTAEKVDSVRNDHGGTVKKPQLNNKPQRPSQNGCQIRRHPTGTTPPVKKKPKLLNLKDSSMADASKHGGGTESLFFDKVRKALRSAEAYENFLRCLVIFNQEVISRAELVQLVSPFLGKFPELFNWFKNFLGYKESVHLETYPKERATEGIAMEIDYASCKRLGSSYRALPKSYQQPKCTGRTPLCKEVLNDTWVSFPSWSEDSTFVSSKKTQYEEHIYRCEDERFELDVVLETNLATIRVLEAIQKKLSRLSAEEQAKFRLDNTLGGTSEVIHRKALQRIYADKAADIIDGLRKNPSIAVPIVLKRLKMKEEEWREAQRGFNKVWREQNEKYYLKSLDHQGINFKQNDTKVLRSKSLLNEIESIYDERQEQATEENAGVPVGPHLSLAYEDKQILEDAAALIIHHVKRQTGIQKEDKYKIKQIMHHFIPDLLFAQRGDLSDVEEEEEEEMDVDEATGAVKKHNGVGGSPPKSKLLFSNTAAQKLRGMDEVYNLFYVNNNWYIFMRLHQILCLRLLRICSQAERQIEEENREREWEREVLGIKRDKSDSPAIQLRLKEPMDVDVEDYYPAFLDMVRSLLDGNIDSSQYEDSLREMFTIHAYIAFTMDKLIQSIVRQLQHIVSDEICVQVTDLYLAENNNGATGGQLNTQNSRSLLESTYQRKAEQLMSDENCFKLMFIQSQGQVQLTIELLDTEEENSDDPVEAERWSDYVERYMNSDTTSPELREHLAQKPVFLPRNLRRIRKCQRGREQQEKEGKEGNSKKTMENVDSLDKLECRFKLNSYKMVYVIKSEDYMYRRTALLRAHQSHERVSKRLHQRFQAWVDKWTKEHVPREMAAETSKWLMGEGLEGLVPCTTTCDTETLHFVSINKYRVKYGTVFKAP
Experiment: co-IP; nuclear extracts of MDA-MB-231 cells, with or without 1 μM Tat-SID for 24 h; immunoprecipitation with anti-SIN3A, anti-PF1 or anti-KDM5B antibodies (Thermo Scientific IP kit), immunoblot for SIN3A, KDM5B, PF1 or MRG15

YGRKKRRQGGGVRMNIQMLLEAADYLERRER [Tat-SID (MAD-SID peptide)]
binding: binds
